Measured data: PubChem BioAssay AID1224830 (NIAID, 2016)
Assay: 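Genes whose knock-down alters the TNF-alpha reporter response to LPS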 (primary screen). Cells: human THP-1 monocytic leukaemia cells, TNF dual-luciferase reporter clone, PMA-differentiated to macrophage-like cells. Reagents: siRNA pool against human genes, 50 nM. Duration: LPS for 4 h, given about 3 days after siRNA transfection. Conditions: bacterial LPS (TLR4 ligand), 10 ng/ml. Measured: 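TNF firefly reporter luminescence divided by renilla, normalised to the plate median, then turned into a robust z-score for each replicate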. Scale: TNF reporter robust z-score: higher = stronger TNF reporter response to LPS. Call rule: 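a well is active when its z-score exceeds 2.8 or falls below -1.5; control wells carry no call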.
The whole screen tested about 18,000 reagents; shown is an unselected part. Over the whole deposit, about 2,900 (16%) got an active call. 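Calls are made per well; low scores hint the gene aids the LPS response, high scores that it dampens it.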 Entries without a mark were called inactive. Repeated entries: four replicate wells of each siRNA pool.

gene knocked down	PubChem SID	TNF reporter robust z-score
RABGEF1 (GeneID 27342)	SID315456044	-1.14
RABGEF1 (GeneID 27342)	SID315456044	-0.87
RABGEF1 (GeneID 27342)	SID315456044	-1.05
RABGEF1 (GeneID 27342)	SID315456044	-0.53
PUM1 (GeneID 9698)	SID315453491	2.05
PUM1 (GeneID 9698)	SID315453491	1.76
PUM1 (GeneID 9698)	SID315453491	0.71
PUM1 (GeneID 9698)	SID315453491	0.37
SLC5A10 (GeneID 125206)	SID315461658	1.15
SLC5A10 (GeneID 125206)	SID315461658	2.2
SLC5A10 (GeneID 125206)	SID315461658	3.4 (active)
SLC5A10 (GeneID 125206)	SID315461658	1.5
CPQ (GeneID 10404)	SID315454062	-1.33
CPQ (GeneID 10404)	SID315454062	0.63
CPQ (GeneID 10404)	SID315454062	-0.44
CPQ (GeneID 10404)	SID315454062	1.07
PEX5 (GeneID 5830)	SID315450994	-0.53
PEX5 (GeneID 5830)	SID315450994	-0.08
PEX5 (GeneID 5830)	SID315450994	-1.38
PEX5 (GeneID 5830)	SID315450994	-0.89
ITLN2 (GeneID 142683)	SID315462166	0.3
ITLN2 (GeneID 142683)	SID315462166	1.06
ITLN2 (GeneID 142683)	SID315462166	-0.63
ITLN2 (GeneID 142683)	SID315462166	-1.57 (active)
RAB8A (GeneID 4218)	SID315449941	-0.4
RAB8A (GeneID 4218)	SID315449941	0.5
RAB8A (GeneID 4218)	SID315449941	-0.66
RAB8A (GeneID 4218)	SID315449941	1.02
BNIP2 (GeneID 663)	SID315447573	-0.19
BNIP2 (GeneID 663)	SID315447573	-1.19
BNIP2 (GeneID 663)	SID315447573	-0.59
BNIP2 (GeneID 663)	SID315447573	-0.45
JADE3 (GeneID 9767)	SID315453548	-2.59 (active)
JADE3 (GeneID 9767)	SID315453548	-0.39
JADE3 (GeneID 9767)	SID315453548	-1.5
JADE3 (GeneID 9767)	SID315453548	-0.18
TEX10 (GeneID 54881)	SID315457234	-0.71
TEX10 (GeneID 54881)	SID315457234	-0.55
TEX10 (GeneID 54881)	SID315457234	0.01
TEX10 (GeneID 54881)	SID315457234	-0.16
TSPAN11 (GeneID 441631)	SID315464954	2.28
TSPAN11 (GeneID 441631)	SID315464954	4.34 (active)
TSPAN11 (GeneID 441631)	SID315464954	1.38
TSPAN11 (GeneID 441631)	SID315464954	-1.01
TOR1B (GeneID 27348)	SID315456050	0.35
TOR1B (GeneID 27348)	SID315456050	3.08 (active)
TOR1B (GeneID 27348)	SID315456050	0.25
TOR1B (GeneID 27348)	SID315456050	0.13

12 entries from above, arranged by “TNF reporter robust z-score”, high to low:
gene knocked down	PubChem SID	TNF reporter robust z-score
TSPAN11 (GeneID 441631)	SID315464954	4.34 (active)
TOR1B (GeneID 27348)	SID315456050	3.08 (active)
TSPAN11 (GeneID 441631)	SID315464954	2.28
TSPAN11 (GeneID 441631)	SID315464954	1.38
TOR1B (GeneID 27348)	SID315456050	0.35
TEX10 (GeneID 54881)	SID315457234	0.01
TEX10 (GeneID 54881)	SID315457234	-0.16
JADE3 (GeneID 9767)	SID315453548	-0.18
TEX10 (GeneID 54881)	SID315457234	-0.55
TEX10 (GeneID 54881)	SID315457234	-0.71
TSPAN11 (GeneID 441631)	SID315464954	-1.01
JADE3 (GeneID 9767)	SID315453548	-1.5

Next results follow:
gene knocked down	PubChem SID	TNF reporter robust z-score
HOXB13 (GeneID 10481)	SID315454126	-0.31
HOXB13 (GeneID 10481)	SID315454126	1.2
HOXB13 (GeneID 10481)	SID315454126	0.59
HOXB13 (GeneID 10481)	SID315454126	1.07
PSMA8 (GeneID 143471)	SID315462185	1.2
PSMA8 (GeneID 143471)	SID315462185	0.71
PSMA8 (GeneID 143471)	SID315462185	-0.91
PSMA8 (GeneID 143471)	SID315462185	0.33
UQCRC2 (GeneID 7385)	SID315452084	-0.45
UQCRC2 (GeneID 7385)	SID315452084	0.56
UQCRC2 (GeneID 7385)	SID315452084	-0.92
UQCRC2 (GeneID 7385)	SID315452084	0.59
H2AB2 (GeneID 474381)	SID315464992	0.71
H2AB2 (GeneID 474381)	SID315464992	1.86
H2AB2 (GeneID 474381)	SID315464992	1.6
H2AB2 (GeneID 474381)	SID315464992	0.6
C1QTNF8 (GeneID 390664)	SID315464656	-0.47
C1QTNF8 (GeneID 390664)	SID315464656	0.86
C1QTNF8 (GeneID 390664)	SID315464656	0.74
C1QTNF8 (GeneID 390664)	SID315464656	-0.39
AGO4 (GeneID 192670)	SID315462947	-0.7
AGO4 (GeneID 192670)	SID315462947	-0.27
AGO4 (GeneID 192670)	SID315462947	-0.55
AGO4 (GeneID 192670)	SID315462947	-0.73
GADD45A (GeneID 1647)	SID315448270	2.13
GADD45A (GeneID 1647)	SID315448270	1.86
GADD45A (GeneID 1647)	SID315448270	1.38
GADD45A (GeneID 1647)	SID315448270	2.28
TDRD5 (GeneID 163589)	SID315462788	0.38
TDRD5 (GeneID 163589)	SID315462788	1.68
TDRD5 (GeneID 163589)	SID315462788	0.46
TDRD5 (GeneID 163589)	SID315462788	0.59
SNRNP48 (GeneID 154007)	SID315462578	0.44
SNRNP48 (GeneID 154007)	SID315462578	1.17
SNRNP48 (GeneID 154007)	SID315462578	0.89
SNRNP48 (GeneID 154007)	SID315462578	1.58
LOC652759 (retired record) (GeneID 652759)	SID315465130	-1.22
LOC652759 (retired record) (GeneID 652759)	SID315465130	0.08
LOC652759 (retired record) (GeneID 652759)	SID315465130	0.87
LOC652759 (retired record) (GeneID 652759)	SID315465130	2.72
SLC35C1 (GeneID 55343)	SID315457613	-0.47
SLC35C1 (GeneID 55343)	SID315457613	-0.27
SLC35C1 (GeneID 55343)	SID315457613	-0.29
SLC35C1 (GeneID 55343)	SID315457613	0.43
RP1 (GeneID 6101)	SID315451162	2.37
RP1 (GeneID 6101)	SID315451162	2.07
RP1 (GeneID 6101)	SID315451162	-0.03
RP1 (GeneID 6101)	SID315451162	0.42
CXCR5 (GeneID 643)	SID315447554	1.73
CXCR5 (GeneID 643)	SID315447554	-1
CXCR5 (GeneID 643)	SID315447554	-1.15
CXCR5 (GeneID 643)	SID315447554	-0.36
SPATA16 (GeneID 83893)	SID315460121	-0.74
SPATA16 (GeneID 83893)	SID315460121	-0.29
SPATA16 (GeneID 83893)	SID315460121	-0.22
SPATA16 (GeneID 83893)	SID315460121	-0.12
DHRS7B (GeneID 25979)	SID315455593	1.86
DHRS7B (GeneID 25979)	SID315455593	-0.7
DHRS7B (GeneID 25979)	SID315455593	0.9
DHRS7B (GeneID 25979)	SID315455593	0.3
CCNB3 (GeneID 85417)	SID315460686	-0.09
CCNB3 (GeneID 85417)	SID315460686	0.23
CCNB3 (GeneID 85417)	SID315460686	-0.31
CCNB3 (GeneID 85417)	SID315460686	-0.07
